In the supplement of paper PMC12823440, “Inhibitors supercharge kinase turnover through native proteolytic circuits” (Nature, 2025):
Some of the results follow. Hit calls seldom repeat between salt and free forms of one compound.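 Kinases were expressed as nanoluciferase fusions in K562 cells and luminescence was read every 4 h between 2 and 18 h as percent of control, DMSO set to 100% and a positive control to 0%. A time point counts as decreased when the signal drops significantly (2 sigma). The hit call is the authors' own, does not follow from the count of time points alone, and its rule is not shown.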

By UniProt entry, the sequences of proteins in these tests, tags left out. Where a name states a change or a piece, a line headed by the entry shows the natural chain unless it says otherwise.
UniProt P28482, whole entry: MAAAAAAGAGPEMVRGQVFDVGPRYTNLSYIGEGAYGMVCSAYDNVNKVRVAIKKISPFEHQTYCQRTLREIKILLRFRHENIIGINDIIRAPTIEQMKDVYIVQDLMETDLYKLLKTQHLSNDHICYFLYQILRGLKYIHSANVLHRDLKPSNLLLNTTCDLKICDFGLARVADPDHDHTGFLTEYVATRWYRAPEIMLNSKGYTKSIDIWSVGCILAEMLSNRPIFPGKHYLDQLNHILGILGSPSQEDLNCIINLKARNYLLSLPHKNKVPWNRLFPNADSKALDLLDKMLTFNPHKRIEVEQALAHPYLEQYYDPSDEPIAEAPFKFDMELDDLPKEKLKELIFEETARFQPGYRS
UniProt P49137, whole entry, looked up: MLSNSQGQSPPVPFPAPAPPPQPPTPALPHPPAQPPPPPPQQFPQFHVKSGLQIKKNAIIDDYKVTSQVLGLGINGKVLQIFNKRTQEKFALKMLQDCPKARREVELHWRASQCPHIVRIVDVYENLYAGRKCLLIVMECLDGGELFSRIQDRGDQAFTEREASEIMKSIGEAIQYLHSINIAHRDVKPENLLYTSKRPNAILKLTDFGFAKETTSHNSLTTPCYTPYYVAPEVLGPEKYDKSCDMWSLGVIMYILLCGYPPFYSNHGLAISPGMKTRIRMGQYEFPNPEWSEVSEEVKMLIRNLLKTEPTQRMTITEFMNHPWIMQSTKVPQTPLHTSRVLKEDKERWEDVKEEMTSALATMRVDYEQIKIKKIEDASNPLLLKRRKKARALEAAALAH
UniProt Q9BUB5: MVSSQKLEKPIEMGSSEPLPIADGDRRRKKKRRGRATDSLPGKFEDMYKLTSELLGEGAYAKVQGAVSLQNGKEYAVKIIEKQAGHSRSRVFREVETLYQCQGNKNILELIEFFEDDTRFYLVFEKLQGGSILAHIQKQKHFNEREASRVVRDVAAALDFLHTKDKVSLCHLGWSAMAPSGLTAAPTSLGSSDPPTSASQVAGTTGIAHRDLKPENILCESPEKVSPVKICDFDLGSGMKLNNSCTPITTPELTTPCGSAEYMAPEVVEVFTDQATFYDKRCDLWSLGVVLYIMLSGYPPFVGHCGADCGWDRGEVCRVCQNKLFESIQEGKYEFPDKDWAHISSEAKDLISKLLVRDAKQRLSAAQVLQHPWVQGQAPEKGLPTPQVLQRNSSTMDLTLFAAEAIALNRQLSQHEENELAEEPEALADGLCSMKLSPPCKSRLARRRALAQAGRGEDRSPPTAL
UniProt O96013: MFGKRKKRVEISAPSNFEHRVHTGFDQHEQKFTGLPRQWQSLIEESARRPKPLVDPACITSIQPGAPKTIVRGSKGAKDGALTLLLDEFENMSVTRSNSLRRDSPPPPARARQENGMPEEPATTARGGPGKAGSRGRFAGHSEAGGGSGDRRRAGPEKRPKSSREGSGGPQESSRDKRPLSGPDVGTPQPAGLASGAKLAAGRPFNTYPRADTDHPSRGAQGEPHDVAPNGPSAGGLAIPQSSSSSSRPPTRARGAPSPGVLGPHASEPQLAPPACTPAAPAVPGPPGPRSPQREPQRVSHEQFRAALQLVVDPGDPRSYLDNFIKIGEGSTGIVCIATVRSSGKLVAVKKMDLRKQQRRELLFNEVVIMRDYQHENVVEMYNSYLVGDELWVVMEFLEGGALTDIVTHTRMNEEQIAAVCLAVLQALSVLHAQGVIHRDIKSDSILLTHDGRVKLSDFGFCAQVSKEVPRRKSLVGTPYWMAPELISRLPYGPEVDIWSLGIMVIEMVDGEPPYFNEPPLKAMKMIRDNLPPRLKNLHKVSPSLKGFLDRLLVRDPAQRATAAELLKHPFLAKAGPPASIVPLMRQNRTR
UniProt Q96KB5: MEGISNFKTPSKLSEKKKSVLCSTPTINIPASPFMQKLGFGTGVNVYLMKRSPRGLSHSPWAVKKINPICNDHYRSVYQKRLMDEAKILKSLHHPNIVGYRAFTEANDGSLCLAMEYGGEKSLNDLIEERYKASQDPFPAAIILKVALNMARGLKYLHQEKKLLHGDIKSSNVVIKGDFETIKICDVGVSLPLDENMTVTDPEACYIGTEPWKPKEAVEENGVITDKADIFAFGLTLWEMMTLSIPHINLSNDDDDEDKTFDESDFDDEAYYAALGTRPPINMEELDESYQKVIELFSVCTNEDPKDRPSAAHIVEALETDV
UniProt P09619, whole entry: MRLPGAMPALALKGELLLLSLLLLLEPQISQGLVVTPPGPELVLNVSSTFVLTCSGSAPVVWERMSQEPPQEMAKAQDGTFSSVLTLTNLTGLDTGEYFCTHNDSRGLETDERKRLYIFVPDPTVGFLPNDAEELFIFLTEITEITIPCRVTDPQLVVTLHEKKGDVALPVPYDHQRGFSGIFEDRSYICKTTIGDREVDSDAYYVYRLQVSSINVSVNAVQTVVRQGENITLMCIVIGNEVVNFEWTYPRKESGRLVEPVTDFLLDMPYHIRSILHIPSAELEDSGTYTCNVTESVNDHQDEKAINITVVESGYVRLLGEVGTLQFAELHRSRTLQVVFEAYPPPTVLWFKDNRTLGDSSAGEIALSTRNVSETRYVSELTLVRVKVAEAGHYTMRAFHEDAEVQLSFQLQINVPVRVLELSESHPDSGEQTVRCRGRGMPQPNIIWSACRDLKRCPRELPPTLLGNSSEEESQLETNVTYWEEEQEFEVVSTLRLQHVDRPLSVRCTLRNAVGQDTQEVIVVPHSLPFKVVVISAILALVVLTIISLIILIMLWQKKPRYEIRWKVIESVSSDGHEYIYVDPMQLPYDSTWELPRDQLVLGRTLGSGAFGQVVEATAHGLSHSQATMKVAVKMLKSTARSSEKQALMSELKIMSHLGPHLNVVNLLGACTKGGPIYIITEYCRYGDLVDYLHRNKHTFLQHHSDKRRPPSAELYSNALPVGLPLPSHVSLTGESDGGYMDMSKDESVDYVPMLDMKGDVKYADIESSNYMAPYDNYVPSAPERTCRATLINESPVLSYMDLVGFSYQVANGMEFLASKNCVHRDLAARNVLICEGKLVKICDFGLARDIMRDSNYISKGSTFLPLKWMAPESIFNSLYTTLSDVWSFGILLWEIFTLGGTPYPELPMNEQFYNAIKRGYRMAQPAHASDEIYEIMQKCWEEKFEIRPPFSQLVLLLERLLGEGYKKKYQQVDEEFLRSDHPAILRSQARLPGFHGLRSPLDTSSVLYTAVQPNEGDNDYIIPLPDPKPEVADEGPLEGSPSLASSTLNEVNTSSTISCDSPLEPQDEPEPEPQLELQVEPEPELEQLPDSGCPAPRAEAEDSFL
UniProt O15530: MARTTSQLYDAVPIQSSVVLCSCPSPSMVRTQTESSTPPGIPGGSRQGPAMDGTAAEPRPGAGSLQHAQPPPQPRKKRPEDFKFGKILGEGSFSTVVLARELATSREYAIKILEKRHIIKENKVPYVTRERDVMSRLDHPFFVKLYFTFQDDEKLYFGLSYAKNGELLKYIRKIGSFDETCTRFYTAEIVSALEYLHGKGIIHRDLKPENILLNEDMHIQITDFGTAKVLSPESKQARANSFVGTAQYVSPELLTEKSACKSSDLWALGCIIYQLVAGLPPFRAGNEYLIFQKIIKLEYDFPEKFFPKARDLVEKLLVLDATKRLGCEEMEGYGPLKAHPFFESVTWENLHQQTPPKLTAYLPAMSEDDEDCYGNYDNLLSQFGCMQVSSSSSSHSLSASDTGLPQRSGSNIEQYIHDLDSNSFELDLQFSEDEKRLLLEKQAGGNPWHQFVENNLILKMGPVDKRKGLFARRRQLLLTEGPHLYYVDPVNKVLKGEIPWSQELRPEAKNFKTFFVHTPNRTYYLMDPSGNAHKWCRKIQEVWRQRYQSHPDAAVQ
UniProt Q05397, whole entry, looked up: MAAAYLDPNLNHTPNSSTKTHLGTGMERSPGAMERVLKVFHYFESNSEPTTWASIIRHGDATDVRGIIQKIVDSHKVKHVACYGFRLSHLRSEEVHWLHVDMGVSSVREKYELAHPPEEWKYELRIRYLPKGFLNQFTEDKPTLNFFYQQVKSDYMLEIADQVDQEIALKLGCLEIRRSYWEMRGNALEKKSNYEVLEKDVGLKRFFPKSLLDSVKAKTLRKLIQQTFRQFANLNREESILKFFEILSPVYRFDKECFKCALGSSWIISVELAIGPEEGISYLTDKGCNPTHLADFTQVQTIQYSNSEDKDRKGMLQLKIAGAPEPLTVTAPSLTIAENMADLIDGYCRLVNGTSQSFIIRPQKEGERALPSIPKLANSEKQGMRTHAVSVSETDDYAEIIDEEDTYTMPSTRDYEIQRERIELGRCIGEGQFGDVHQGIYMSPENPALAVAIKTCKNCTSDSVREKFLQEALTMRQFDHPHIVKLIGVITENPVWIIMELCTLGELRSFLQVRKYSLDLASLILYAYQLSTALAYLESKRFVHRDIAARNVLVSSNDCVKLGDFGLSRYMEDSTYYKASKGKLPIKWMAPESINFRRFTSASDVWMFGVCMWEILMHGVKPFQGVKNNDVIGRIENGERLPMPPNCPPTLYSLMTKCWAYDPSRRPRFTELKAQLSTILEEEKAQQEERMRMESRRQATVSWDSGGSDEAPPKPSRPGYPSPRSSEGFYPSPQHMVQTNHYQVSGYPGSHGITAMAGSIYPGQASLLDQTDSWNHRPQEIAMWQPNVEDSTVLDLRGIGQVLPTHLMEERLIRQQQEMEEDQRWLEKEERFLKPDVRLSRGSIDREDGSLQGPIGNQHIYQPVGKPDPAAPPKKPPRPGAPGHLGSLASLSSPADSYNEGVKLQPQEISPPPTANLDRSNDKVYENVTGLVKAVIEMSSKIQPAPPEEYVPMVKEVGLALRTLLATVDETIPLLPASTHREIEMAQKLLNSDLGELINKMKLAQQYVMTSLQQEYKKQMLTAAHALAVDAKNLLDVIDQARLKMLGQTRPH
UniProt Q14289, whole entry, looked up: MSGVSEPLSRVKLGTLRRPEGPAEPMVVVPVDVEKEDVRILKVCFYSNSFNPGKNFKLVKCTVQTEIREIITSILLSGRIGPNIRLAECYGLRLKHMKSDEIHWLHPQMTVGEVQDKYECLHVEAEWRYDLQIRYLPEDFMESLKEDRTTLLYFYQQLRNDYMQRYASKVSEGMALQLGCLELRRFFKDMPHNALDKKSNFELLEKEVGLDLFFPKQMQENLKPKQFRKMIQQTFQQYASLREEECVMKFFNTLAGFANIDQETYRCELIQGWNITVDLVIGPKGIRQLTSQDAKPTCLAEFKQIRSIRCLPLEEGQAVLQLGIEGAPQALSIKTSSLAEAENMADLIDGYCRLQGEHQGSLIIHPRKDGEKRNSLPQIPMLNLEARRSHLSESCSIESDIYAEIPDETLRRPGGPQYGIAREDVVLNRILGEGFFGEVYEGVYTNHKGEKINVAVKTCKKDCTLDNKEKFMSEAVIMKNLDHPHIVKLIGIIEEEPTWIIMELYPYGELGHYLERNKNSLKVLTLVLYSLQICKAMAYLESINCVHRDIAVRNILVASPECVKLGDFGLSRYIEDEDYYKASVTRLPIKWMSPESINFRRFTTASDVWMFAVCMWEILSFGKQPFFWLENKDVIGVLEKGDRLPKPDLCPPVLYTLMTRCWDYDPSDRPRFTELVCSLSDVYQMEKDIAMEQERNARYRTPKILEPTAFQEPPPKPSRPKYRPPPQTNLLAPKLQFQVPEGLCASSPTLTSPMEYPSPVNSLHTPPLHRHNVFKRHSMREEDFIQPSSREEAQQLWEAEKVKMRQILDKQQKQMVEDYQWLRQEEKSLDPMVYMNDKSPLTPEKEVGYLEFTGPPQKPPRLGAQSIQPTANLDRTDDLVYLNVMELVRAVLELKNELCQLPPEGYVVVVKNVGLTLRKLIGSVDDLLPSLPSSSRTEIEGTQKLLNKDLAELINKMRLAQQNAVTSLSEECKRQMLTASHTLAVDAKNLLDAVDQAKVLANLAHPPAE

Key:
Experiment in all cases: kinase-Nluc reporter destabilization hit call (1 = scored as downregulated) (binary); higher = compound decreases kinase abundance
Conditions in all cases: K562, 2-18 h
MAPK1 = MAPK1 (UniProt P28482)
MAPK4 = MAPK4 (UniProt P31152)
MAPKAPK2 = MAPKAPK2 (UniProt P49137)
MKNK1 = MKNK1 (UniProt Q9BUB5)
NTRK2 = NTRK2 (UniProt Q16620)
NTRK3 = NTRK3 (UniProt Q16288)
PAK4 = PAK4 (UniProt O96013)
PBK = PBK (UniProt Q96KB5)
PDGFRB = PDGFRB (UniProt P09619)
PDK1 = PDK1 (UniProt Q15118)
PDPK1 = PDPK1 (UniProt O15530)
PIK4CA = PIK4CA (UniProt P42356)
PIK4CB = PIK4CB (UniProt Q9UBF8)
PLK1 = PLK1 (UniProt P53350)
PRKAA1 = PRKAA1 (UniProt Q13131)
PRKCA = PRKCA (UniProt P17252)
PTK2 = PTK2 (UniProt Q05397)
PTK2B = PTK2B (UniProt Q14289)
RAF1 = RAF1 (UniProt P04049)
[1] = target: RAF1_S257L (clone: RAF1_mut) (UniProt P04049)

Measured: kinase-Nluc reporter destabilization hit call

CS(=O)(=O)N1CCN(Cc2cc3nc(-c4cccc5[nH]ncc45)nc(N4CCOCC4)c3s2)CC1 [Pictilisib]
inactive: MAPK1; 10 µM 0 | MAPK4; 10 µM 0 | MAPKAPK2; 10 µM 0 | MKNK1; 10 µM 0 | NTRK2; 10 µM 0 | NTRK3; 10 µM 0 | PAK4; 10 µM 0 | PBK; 10 µM 0 | PDGFRB; 10 µM 0 | PDK1; 10 µM 0 | PDPK1; 10 µM 0 | PIK4CA; 10 µM 0 | PIK4CB; 10 µM 0 | PLK1; 10 µM 0 | PRKAA1; 10 µM 0 | PRKCA; 10 µM 0 | PTK2; 10 µM 0 | PTK2B; 10 µM 0 | RAF1; 10 µM 0 | [1]; 10 µM 0

C#Cc1cccc(Nc2ncnc3cc(OCCOC)c(OCCO)cc23)c1 [Desmethyl Erlotinib]
inactive: MAPK1; 10 µM 0 | MAPK4; 10 µM 0 | MAPKAPK2; 10 µM 0 | MKNK1; 10 µM 0 | NTRK2; 10 µM 0 | NTRK3; 10 µM 0 | PAK4; 10 µM 0 | PBK; 10 µM 0 | PDGFRB; 10 µM 0 | PDK1; 10 µM 0 | PDPK1; 10 µM 0 | PIK4CA; 10 µM 0 | PIK4CB; 10 µM 0 | PLK1; 10 µM 0 | PRKAA1; 10 µM 0 | PRKCA; 10 µM 0 | PTK2; 10 µM 0 | PTK2B; 10 µM 0 | RAF1; 10 µM 0 | [1]; 10 µM 0

O=C1Nc2ccccc2/C1=C/c1ccccn1 [GSK-3β inhibitor 1]
inactive: MAPK1; 10 µM 0 | MAPK4; 10 µM 0 | MAPKAPK2; 10 µM 0 | MKNK1; 10 µM 0 | NTRK2; 10 µM 0 | NTRK3; 10 µM 0 | PAK4; 10 µM 0 | PBK; 10 µM 0 | PDGFRB; 10 µM 0 | PDK1; 10 µM 0 | PDPK1; 10 µM 0 | PIK4CA; 10 µM 0 | PIK4CB; 10 µM 0 | PLK1; 10 µM 0 | PRKAA1; 10 µM 0 | PRKCA; 10 µM 0 | PTK2; 10 µM 0 | PTK2B; 10 µM 0 | RAF1; 10 µM 0 | [1]; 10 µM 0

c1cc(-c2cnn3cc(-c4ccc(OCCN5CCCCC5)cc4)cnc23)ccn1 [Dorsomorphin]
inactive: MAPK1; 2.5 µM 0 | MAPK4; 2.5 µM 0 | MAPKAPK2; 2.5 µM 0 | MKNK1; 2.5 µM 0 | NTRK2; 2.5 µM 0 | NTRK3; 2.5 µM 0 | PAK4; 2.5 µM 0 | PBK; 2.5 µM 0 | PDGFRB; 2.5 µM 0 | PDK1; 2.5 µM 0 | PDPK1; 2.5 µM 0 | PIK4CA; 2.5 µM 0 | PIK4CB; 2.5 µM 0 | PLK1; 2.5 µM 0 | PRKAA1; 2.5 µM 0 | PRKCA; 2.5 µM 0 | PTK2; 2.5 µM 0 | PTK2B; 2.5 µM 0 | RAF1; 2.5 µM 0 | [1]; 2.5 µM 0

Nc1ncnc2c1c(-c1ccc(Oc3ccccc3)cc1)nn2[C@@H]1CCCNC1
inactive: MAPK1; 2.5 µM 0 | MAPK4; 2.5 µM 0 | MAPKAPK2; 2.5 µM 0 | MKNK1; 2.5 µM 0 | NTRK2; 2.5 µM 0 | NTRK3; 2.5 µM 0 | PAK4; 2.5 µM 0 | PBK; 2.5 µM 0 | PDGFRB; 2.5 µM 0 | PDK1; 2.5 µM 0 | PDPK1; 2.5 µM 0 | PIK4CA; 2.5 µM 0 | PIK4CB; 2.5 µM 0 | PLK1; 2.5 µM 0 | PRKAA1; 2.5 µM 0 | PRKCA; 2.5 µM 0 | PTK2; 2.5 µM 0 | PTK2B; 2.5 µM 0 | RAF1; 2.5 µM 0 | [1]; 2.5 µM 0

CC(C)(C)n1nc(-c2cccc3ccccc23)c2c(N)ncnc21 [1-Naphthyl PP1]
inactive: MAPK1; 10 µM 0 | MAPK4; 10 µM 0 | MAPKAPK2; 10 µM 0 | MKNK1; 10 µM 0 | NTRK2; 10 µM 0 | NTRK3; 10 µM 0 | PAK4; 10 µM 0 | PBK; 10 µM 0 | PDGFRB; 10 µM 0 | PDK1; 10 µM 0 | PDPK1; 10 µM 0 | PIK4CA; 10 µM 0 | PIK4CB; 10 µM 0 | PLK1; 10 µM 0 | PRKAA1; 10 µM 0 | PRKCA; 10 µM 0 | PTK2; 10 µM 0 | PTK2B; 10 µM 0 | RAF1; 10 µM 0 | [1]; 10 µM 0

COc1cc(/C=C/C(=O)O)ccc1O [Ferulic acid (sodium)]
inactive: MAPK1; 10 µM 0 | MAPK4; 10 µM 0 | MAPKAPK2; 10 µM 0 | MKNK1; 10 µM 0 | NTRK2; 10 µM 0 | NTRK3; 10 µM 0 | PAK4; 10 µM 0 | PBK; 10 µM 0 | PDGFRB; 10 µM 0 | PDK1; 10 µM 0 | PDPK1; 10 µM 0 | PIK4CA; 10 µM 0 | PIK4CB; 10 µM 0 | PLK1; 10 µM 0 | PRKAA1; 10 µM 0 | PRKCA; 10 µM 0 | PTK2; 10 µM 0 | PTK2B; 10 µM 0 | RAF1; 10 µM 0 | [1]; 10 µM 0

O=C(Nc1cnn2ccc(N3CCC[C@@H]3c3cc(F)ccc3F)nc12)N1CC[C@H](O)C1 [Larotrectinib]
inactive: MAPK1; 10 µM 0 | MAPK4; 10 µM 0 | MAPKAPK2; 10 µM 0 | MKNK1; 10 µM 0 | NTRK2; 10 µM 0 | NTRK3; 10 µM 0 | PAK4; 10 µM 0 | PBK; 10 µM 0 | PDGFRB; 10 µM 0 | PDK1; 10 µM 0 | PDPK1; 10 µM 0 | PIK4CA; 10 µM 0 | PIK4CB; 10 µM 0 | PLK1; 10 µM 0 | PRKAA1; 10 µM 0 | PRKCA; 10 µM 0 | PTK2; 10 µM 0 | PTK2B; 10 µM 0 | RAF1; 10 µM 0 | [1]; 10 µM 0

COc1ncc(F)cc1CNc1ccc(Cc2c[nH]c3ncc(C)cc23)c(F)n1 [PLX5622 (hemifumarate)]
inactive: MAPK1; 10 µM 0 | MAPK4; 10 µM 0 | MAPKAPK2; 10 µM 0 | MKNK1; 10 µM 0 | NTRK2; 10 µM 0 | NTRK3; 10 µM 0 | PAK4; 10 µM 0 | PBK; 10 µM 0 | PDGFRB; 10 µM 0 | PDK1; 10 µM 0 | PDPK1; 10 µM 0 | PIK4CA; 10 µM 0 | PIK4CB; 10 µM 0 | PLK1; 10 µM 0 | PRKAA1; 10 µM 0 | PRKCA; 10 µM 0 | PTK2; 10 µM 0 | PTK2B; 10 µM 0 | RAF1; 10 µM 0 | [1]; 10 µM 0
